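Viability assay of Plasmodium falciparum sporozoites; the read-out is not stated. The concentration is filed as 10 mM, unlikely as a test dose, so the dose is not known. Direction is inferred from retests: higher values go with lower viability. Strong results were mostly tested again. Size under these conditions: about 34,000 compounds, about 280 of them at 50% or above in at least one test.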

The filed quantity is “Percent Effect” (%). The controls that fix the scale are not given in the record; negative values are as filed. Compounds were drawn at random from those tested, without regard to their results. Two or more numbers in one place are separate tests of the same structure; such repeats can differ widely.

| SMILES | percent effect |
|---|---|
| `O=C(c1ccc2c(c1)OCCCO2)N1CCCC(n2ccnc2)C1` (stereo not shown) | 20.19 |
| `Cc1[nH]nc2ncc(C(=O)N3CCN(CC(C)O)CC3)cc12.Cl` (stereo not shown) | -1.706 |
| `CC1C(=O)Nc2cccnc2N1S(=O)(=O)c1ccc(C#N)c(Cl)c1` (stereo not shown) | -0.8705 |
| `CN(CCC1CCOCC1)[C@@H]1c2ccccc2C2(CCNCC2)[C@H]1O` | 6.709 |
| `O=C(O)C(F)(F)F.[H][C@@]12COC[C@]1(COCC(=O)N(C)C)CN(Cc1sccc1C)C2` | 6.754 |
| `Cc1nc(C)n(CC2CCCN(Cc3cccnc3)C2)n1` (stereo not shown) | 3.398 |
| `Cn1cc(C(=O)CC2CCCN2C(=O)c2cncc3ccccc23)cn1` (stereo not shown) | -21.72 |
| `Cn1cc(CN2CCCC3(CCN(c4cccnc4)C3=O)C2)cn1` (stereo not shown) | 0.8323 |
| `Cc1cccc(-c2ccc(C(=O)NCC(C)(C)C(N)=O)c(=O)[nH]2)c1` | -4.48 |
| `COCc1cncc2c1CCN(C(=O)c1ccc(C)o1)C2` | 5.952 |
| `CC(C)c1nc(CN(C)C2CCCN(c3cccnn3)C2)no1` (stereo not shown) | 7.417 |
| `COc1ccc(-n2ccc(C(=O)N3CCC(C(N)=O)C3)n2)cc1` (stereo not shown) | -17.13 |
| `[H][C@@]12CCCN1C[C@H](CCSC)N(Cc1coc3ccc(C)cc3c1=O)C2` | 13.83 and 13.31 and 18.28 |
| `CCC(C)NC(=O)CCNC(=O)c1c[nH]cc1-c1cccc(OC)c1` (stereo not shown) | -11.01 |
| `COc1cccc(-c2noc(C3CCN(Cc4cn(C)nc4C)C3)n2)c1` (stereo not shown) | 82.7 and 74.22 and 69.73 |
| `CCS(=O)(=O)N1CCC2(CC1)c1ncc(-c3cccnc3)n1CCN2C` | -2.674 |
| `O=C(Cc1ccc2c(c1)OCCO2)N1CCCC(n2ccnc2)C1` (stereo not shown) | -25.73 and -27.22 and -5.087 |
| `CC(=O)Nc1nc(C2CCN(C(=O)c3cncs3)CC2)cs1` | 7.861 |
| `CC(NC(=O)c1csnn1)c1ccc(OCC2CC2)c(F)c1` (stereo not shown) | -1.81 |
| `CCOc1ccccc1C(=O)Oc1cc(=O)n2cccc(C)c2n1` | -4.814 |
| `Cc1ccc(CNS(=O)(=O)CC2=NC(=O)n3cccc3C2=O)cc1` | 1.096 |
| `Cc1ccc(C(=O)N2CCC(Oc3ccc(C)c(C)c3)CC2)c(=O)[nH]1` | 4.932 |
| `COCC(=O)N1CC(C(=O)NCC2CC2)C2(CCOCC2)C1` (stereo not shown) | 9.282 |
| `CNc1nc(CNC(=O)Nc2cccc(F)c2C)cs1` | -12.53 |
| `Cc1nc(NC2CCCC2)cc(C2CCN2c2ncccn2)n1` (stereo not shown) | -0.03218 |
| `Cc1c(C2CCCN(C(=O)Cc3ccccn3)C2)n2c(nc1=O)CCC2.Cl` (stereo not shown) | -10.07 |
| `Cn1cccc1C(=O)N1CCn2cc(CNC(=O)CC3CC3)nc2C1` | 4.729 |
| `Cc1nnc(NC(=O)NCc2cccnc2N(C)C)s1` | 1.635 |
| `O=C(O)C(F)(F)F.O=C(O)C(F)(F)F.c1cncc(OC[C@@H]2CCC[C@@]23CN(Cc2nccs2)CCO3)c1` | 4.381 |
| `Cc1nc(COCC2CN(C(N)=O)Cc3nccn3C2)cs1.O=C(O)C(F)(F)F` (stereo not shown) | 6.239 |
| `CN(C)C(=O)c1n[nH]c2c1CN(CC1CCC1)C2.O=C(O)C(F)(F)F.O=C(O)C(F)(F)F` | -8.146 |
| `Cc1ccc(NC2CCN(C(=O)COC3CCCCC3)CC2)nn1` | 17.67 |
| `Cc1cc(CN(C)C2CCCN(c3cccnn3)C2)no1` (stereo not shown) | -5.01 |
| `CNc1ccnc(N(C)Cc2cc(-c3cccs3)n[nH]2)n1` | 42.59 and 48.08 and 44.47 |
| `CNc1ccnc(N2C[C@@H](C)[C@](O)(C3CC3)C2)n1` | -39.96 |
| `CC(C)(C)c1cc(C(=O)N2CCC(c3cnccn3)CC2)[nH]n1` | -4.079 |
| `Cc1noc(C)c1CC(=O)N1CCC(c2ccn3nccc3n2)CC1` | 3.171 |
| `Cc1ccc(C2(CN(C)Cc3sccc3C)CCNCC2)nc1` | -10.02 |
| `CC(C)N(C)CC(=O)NCCc1nc(C(F)(F)F)cs1` | 0.3911 |
| `CN1Cc2ccccc2CC2(CCN(Cc3nccn3C)CC2)C1=O` | 9.012 |
| `COCCc1noc(CNC2CCc3nc(C(C)C)nn3C2)n1` (stereo not shown) | -11.33 |
| `O=C1CC(NCc2ccccn2)CN1CCc1ccc(F)cc1` (stereo not shown) | -6.615 |
| `CCOCC1CCCN(C(=O)NCc2ccc(-c3ccn[nH]3)cc2)C1` (stereo not shown) | 14.81 |
| `O=C(CCc1ccccc1)N[C@H]1CC[C@@]2(CCC(=O)N2)CC1` | -2.189 |
| `O=C(O)C(F)(F)F.O=C(O)C(F)(F)F.[H][C@@]12CCN(Cc3cccc(C)n3)[C@@]1([H])CCN2C(=O)Cc1cccs1` | 2.025 |
| `CC(C)NC(=O)C1CN(C(=O)N2CCCC2)CC12CCOCC2` (stereo not shown) | -7.718 |
| `CCn1nccc1CNC(=O)C(C)n1cc2c(n1)c(C)nn2C` (stereo not shown) | -3.947 |
| `Cc1ccc2c(c1)CN(C(=O)c1cnc(C)cn1)C(CN(C)C)CO2.Cl` (stereo not shown) | -2.552 |
| `CCn1cc(N)c(-c2nnc3n2CCC3)n1` | 15.98 |
| `COc1cccc(N2C(=O)CC3(CCCNC3)C2=O)c1.Cl` (stereo not shown) | 6.042 |
| `Cc1nn(C)c(N2CCOCC2)c1CNCc1ccc(CO)c(F)c1` | 6.244 and -2.774 and 0.4422 |
| `O=C(CN1CCN(C(=O)c2sccc2C2CC2)CC1)NC1CC1` | 3.365 |
| `CN1C[C@@H](C(=O)NC2CCCC2)[C@@]2(COc3ccc(F)cc3C2=O)C1` | 10.07 |
| `Nc1cc2c(nn1)CCN(C(=O)CC1CCCCC1)C2` | -4.239 |
| `CCC(=O)NC1CCCN(C(=O)Nc2cc(-c3ccccc3)on2)C1` (stereo not shown) | 86.86 and 95.97 |
| `O=C(NCCC(=O)N1CCCc2ccccc21)c1c(O)cc(F)cc1F` | -2.775 |
| `Cl.c1cc(NCc2ccncc2)nc(C2CCCN2)c1` (stereo not shown) | -9.004 |
| `CC(C)(C)c1nc(CNC(=O)N2CCc3ccccc3C2CO)no1` (stereo not shown) | -7.692 |
| `CCOC1CCCN(C(=O)c2cnc3c(cnn3C3CCCC3)c2)C1` (stereo not shown) | -13.4 |
| `Cc1ccccc1CN1CCN(C(=O)c2ccn(C(C)(C)C)c2)CC1` | 4.487 |
| `Cc1cc2nc(SCC(=O)N3CCOCC3)n(C(C)C)c(=O)c2[nH]1` | -1.362 |
| `CNc1nccc(-c2cnc3sc(C)c(C)n3c2=O)n1` | 5.165 |
| `COc1cc(C)nc(N2CCN(C(=O)CNC(C)(C)C)CC2)n1` | 7.729 |
| `Cc1ccc(CN(CCCN2CCOCC2)Cc2cnn(C)c2)o1.O=C(O)CC(O)(CC(=O)O)C(=O)O` | 5.763 |
| `CS(=O)(=O)CCN1CCCC1c1noc(C2CC2)n1` (stereo not shown) | -3.385 |
| `Cc1ccc(C(=O)Nc2cn[nH]c2)cc1F` | 4.998 |
| `CCS(=O)(=O)N1CCC(n2nc(-c3cc(C)oc3C)ccc2=O)CC1` | 18.35 |

5 of the entries, repeated:

{"smiles": "CN1C[C@@H](C(=O)NC2CCCC2)[C@@]2(COc3ccc(F)cc3C2=O)C1", "percent effect": 10.07}
{"smiles": "Cc1ccc(NC2CCN(C(=O)COC3CCCCC3)CC2)nn1", "percent effect": 17.67}
{"smiles": "O=C1CC(NCc2ccccn2)CN1CCc1ccc(F)cc1", "stereo": "stereo not shown", "percent effect": -6.615}
{"smiles": "COCc1cncc2c1CCN(C(=O)c1ccc(C)o1)C2", "percent effect": 5.952}
{"smiles": "Cc1cc(CN(C)C2CCCN(c3cccnn3)C2)no1", "stereo": "stereo not shown", "percent effect": -5.01}

From ChEMBL document CHEMBL3988442, “University of Dundee, Small-Polar-MMV Screening Library” (2021).